# Primary screen of a compound library

Chains of the proteins cited; added tags and fusions are not shown.
UniProt P9WPC5, whole entry: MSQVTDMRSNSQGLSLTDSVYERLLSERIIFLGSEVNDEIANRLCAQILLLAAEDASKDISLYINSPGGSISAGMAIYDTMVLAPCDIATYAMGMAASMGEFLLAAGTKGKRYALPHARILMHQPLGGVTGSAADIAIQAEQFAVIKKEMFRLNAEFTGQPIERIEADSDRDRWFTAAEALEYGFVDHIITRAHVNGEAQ
UniProt P9WPC3, whole entry partner: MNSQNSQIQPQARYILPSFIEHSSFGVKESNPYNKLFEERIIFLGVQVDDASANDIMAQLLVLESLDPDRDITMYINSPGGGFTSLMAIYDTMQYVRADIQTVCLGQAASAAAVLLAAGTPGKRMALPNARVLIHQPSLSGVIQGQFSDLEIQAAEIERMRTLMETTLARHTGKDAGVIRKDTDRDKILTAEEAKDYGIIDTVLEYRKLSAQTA

The values are deposited in ChEMBL (CHEMBL3988442, “University of Dundee, Small-Polar-MMV Screening Library” (2021)).

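ClpP1P2, Mycobacterium tuberculosis (UniProt P9WPC5 and UniProt P9WPC3). Protease assay of ClpP1P2, read by the AMC dye that it sets free. Concentration: 50 µM. Direction is inferred from only a few compounds that gave an IC50; most scored high, so higher reads as stronger inhibition. Most other retested compounds had strongly negative values. Of about 69,000 compounds tested this way, about 10 (0.015%) reached 50% or more in at least one test.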

Each number is a percent effect as filed. How 0% and 100% were set is not recorded. Most values in the screen are low, and negative values occur. Compounds were drawn at random from those tested, without regard to their results.

* O=C(CCn1cncn1)N1CCCC1c1noc(C2CC2)n1 (centres unmarked) : -4.76%
* Cc1cc(N2CCN(C(=O)Cc3c(C)nc(C)[nH]c3=O)CC2)cc(C)n1 : -3.934%
* c1ccc(Cn2cc(CNC3CCc4ncnn4C3)cn2)cc1 (centres unmarked) : 0.03641%
* COCC(=O)N1CCC2(CC1)CN(c1ncccn1)CCO2 : -4.588%
* COCc1ncc(CN2CC[C@@](O)(COC)C(C)(C)C2)cn1 : -12.35%
* CCc1nc(CCNC(=O)Nc2cc(C(N)=O)sc2C)cs1 : -19.84%
* CCOCC(C)(C)NC(=O)Nc1cc(F)ccc1OC : -4.32%
* O=C(c1ccoc1)N1CCC2(C1)CN(c1nccs1)C2 : -18.19%
* CCOc1ccc(CNCCCn2ccnc2)cc1Cl : 13.37%
* COc1ccc(C(=O)C2CCCN(Cc3ccccc3O)C2)c(OC)c1 (centres unmarked) : -12.56%
* COCc1ccccc1C(=O)N1CCn2c(nnc2C(C)C)C1 : 0.9332%
* Cc1ccc(CNc2ccc(N3CCC(CO)CC3)cn2)o1 : -19.15%
* Cc1nc2c(c(Nc3ccccn3)n1)CN(S(C)(=O)=O)CC2 : -21.91%
* O=C(c1ccncc1)N1CCCn2c(CN3CCCC3)nnc2C1 : -4.525%
* CN(CC(=O)N1CCN(c2ccccc2F)CC1)c1cnccn1 : 2.982%
* O=C(NC1CC1)c1nc(Cn2c(C(F)F)nc3ccccc32)no1 : -7.855%
* Cc1cc(C)n(CC2CCCN2C(=O)c2ccc3c(c2)COC3)n1 (centres unmarked) : -5.189%
* O=C(NCC(O)c1ccccc1)Nc1cccs1 (centres unmarked) : 8.04%
* Cc1ccccc1-c1noc(CN2CCc3cncnc3C2)n1 : -50.47%
* CCn1c(C)cc(C(=O)NCc2cccc(NS(C)(=O)=O)c2)c1C : -13.81%
* COc1ccc(F)cc1C(=O)C1CCCN(Cc2cnc(C)s2)C1 (centres unmarked) : -13.18%
* COCCN1CC[C@@H]2O[C@@H](COCC(=O)N3CCCC3)CC[C@@H]21 : 0.6196%
* O=C(c1ccco1)N1CCCn2cnc(COCC3CC3)c2C1 : -3.408%
* CCN1CCN(c2ccc(CNC(=O)c3cnn(C)c3C)cn2)CC1 : -19.22%
* Cc1nonc1OCCNC(=O)COc1ccc(F)cc1F : 13%
* O=C(C1=CCCC1)N1C[C@@H]2COC[C@]2(COc2cccnc2)C1 : -0.8684%
* CN1CCC(Cc2noc(CCc3nc4ccccc4nc3O)n2)CC1 : 1.438%
* FC(F)CN1CCC(NCCc2ccc(-n3cccn3)cc2)CC1 : -11.75%
* COCCCNC(=O)Cn1c(-c2cccc(Cl)c2)nc(C)cc1=O : -4.827%
* CCc1nnc2n1CCN(C(=O)c1ccc(-c3ccco3)[nH]c1=O)C2 : -293.5%
* O=C(c1cccc2c1OCCO2)N1CCCC(n2cccn2)C1 (centres unmarked) : -13.26%
* CCCS(=O)(=O)NC(=O)c1ccc(-n2nc(C)cc2C)cc1 : -2.438%
* O=C(N[C@@H]1CN(CCc2ccc(F)cc2)C[C@H]1O)c1cscn1 : -2.757%
* C=C(C)COCCNC(=O)C1CCCN1C(C)=O (centres unmarked) : 8.965%
* Cn1cc(C2CCCN2CCCn2c(=O)oc3ccccc32)cn1 (centres unmarked) : -8.956%
* CNS(=O)(=O)c1ccc(CN2CCN3CCNC(=O)C3C2)cc1 (centres unmarked) : 2.652%
* COC(C)(C)c1noc(C2(C#N)CCCC2)n1 : 9.738%

Once more, the final 4:

| SMILES | percent effect |
|---|---|
| `C=C(C)COCCNC(=O)C1CCCN1C(C)=O` (centres unmarked) | 8.965 |
| `Cn1cc(C2CCCN2CCCn2c(=O)oc3ccccc32)cn1` (centres unmarked) | -8.956 |
| `CNS(=O)(=O)c1ccc(CN2CCN3CCNC(=O)C3C2)cc1` (centres unmarked) | 2.652 |
| `COC(C)(C)c1noc(C2(C#N)CCCC2)n1` | 9.738 |